Values from PubChem BioAssay AID1671195 (Yale University, 2021).
Purpose: 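Regulators of LDL receptor activity judged by labelled LDL uptake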 (primary screen). System: human Huh7 hepatoma cells. Knock-down reagent: siRNA pool against human genes, 18 nM. Time to read-out: about 2 to 2.5 days of knockdown, then 8 h LDL uptake. Treatment: DiI-labelled LDL at 30 µg/ml for 8 h, in lipoprotein-deficient serum medium. Detection: 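Fluorescent LDL signal imaged in cells, scaled to the plate median, robust z-score for each replicate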. Scale: robust z-score: higher = more LDL uptake after knockdown. Call rule: 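Active when two or more replicates show a robust z-score above 2 or below -2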.
The whole screen tested about 22,000 reagents; this is a random part of them. About 1,510 of all reagents (6.9%) count as active. 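Active includes knockdowns raising or lowering LDL uptake; positive z-scores mean more uptake, negative mean less.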

target gene | robust z-score, replicate 1 | robust z-score, replicate 2 | robust z-score, replicate 3 | outcome
BCL6B (BCL6B transcription repressor) | -0.403 | -0.368 | -0.449 | inactive
SCGB2A1 (secretoglobin family 2A member 1) | 1.68 | 0.873 | 1.15 | inactive
APOC4 (apolipoprotein C4) | 0.271 | 1.11 | 0.678 | inactive
CREBZF (CREB/ATF bZIP transcription factor) | 0.862 | 1.47 | 0.822 | inactive
OAS1 (2'-5'-oligoadenylate synthetase 1) | -0.294 | -1.81 | -1.26 | inactive
PGLYRP1 (peptidoglycan recognition protein 1) | 0.402 | -0.0779 | 0.22 | inactive
CDCA8 (cell division cycle associated 8) | 0.678 | 1.49 | 0.243 | inactive
FOSL2 (FOS like 2, AP-1 transcription factor subunit) | -0.747 | -0.184 | 0.84 | inactive
WLS (Wnt ligand secretion mediator) | 0.723 | 0.0653 | 0.0413 | inactive
CASK (calcium/calmodulin dependent serine protein kinase) | 0.905 | -0.0362 | 0.492 | inactive
RPF2 (ribosome production factor 2 homolog) | 2.96 | 2.66 | 3.39 | active
SLC31A1 | 0.35 | 0.495 | -0.315 | inactive
LOC442385 (retired record) | -0.341 | -0.796 | -0.797 | inactive
FMN2 (formin 2) | -0.481 | 1.47 | 1.47 | inactive
KRT32 (keratin 32) | 0.97 | -0.788 | 0.174 | inactive
ABHD12 (abhydrolase domain containing 12, lysophospholipase) | -2.39 | -1.53 | -1.43 | inactive
S100A8 (S100 calcium binding protein A8) | -0.313 | -0.296 | -0.816 | inactive
DVL3 (dishevelled segment polarity protein 3) | -0.702 | -0.449 | -0.673 | inactive
C4orf54 (chromosome 4 open reading frame 54) | -0.36 | -0.824 | -0.583 | inactive
SARM1 (sterile alpha and TIR motif containing 1) | -0.919 | 0.151 | -0.376 | inactive
PTK2B (protein tyrosine kinase 2 beta) | 0.63 | -0.494 | 0.475 | inactive
LAMP1 (lysosome associated membrane protein 1) | -0.0146 | 0.0306 | -0.3 | inactive
LOC440466 (retired record) | -0.502 | -0.335 | -0.732 | inactive
DNAH10 (dynein axonemal heavy chain 10) | -0.602 | -0.866 | -0.266 | inactive
LOC441243 (retired record) | 1.67 | 0.329 | 0.589 | inactive
CDKN1C (cyclin dependent kinase inhibitor 1C) | -2.09 | -1.94 | -0.587 | active
PDE7A (phosphodiesterase 7A) | -0.891 | -0.793 | -1.09 | inactive
BNIP3L (BCL2 interacting protein 3 like) | 0.0823 | 0.756 | 1.64 | inactive
PPFIBP2 (PPFIB scaffold protein 2) | -2.16 | -2.02 | -2.1 | active
CYRIB (CYFIP related Rac1 interactor B) | 0.527 | 0.864 | 1.77 | inactive
BPGM (bisphosphoglycerate mutase) | 1.14 | 1.43 | 1.15 | inactive
TAS2R1 (taste 2 receptor member 1) | -1.18 | -1.37 | -0.959 | inactive
CPXM1 (carboxypeptidase X, M14 family member 1) | 0.425 | -0.0759 | 0.512 | inactive
LOC402367 (retired record) | -0.928 | 0.0744 | -0.526 | inactive
OR7E86P (olfactory receptor family 7 subfamily E member 86 pseudogene) | -1.43 | -1.77 | -1.63 | inactive
VENTX (VENT homeobox) | 2.62 | 2.02 | 2.22 | active
SULT6B1 (sulfotransferase family 6B member 1) | -0.795 | -0.68 | 0.191 | inactive
VIPAS39 | 0.916 | 0.591 | 0.307 | inactive
SIPA1L1 (signal induced proliferation associated 1 like 1) | 0.709 | 1.29 | 1.2 | inactive
GPR27 (G protein-coupled receptor 27) | 0.31 | 0.0105 | -0.264 | inactive
NOTCH1 (notch receptor 1) | -0.443 | 0.397 | -0.0763 | inactive
ATP1A2 (ATPase Na+/K+ transporting subunit alpha 2) | 0.425 | -0.426 | -0.14 | inactive
VPS37B (VPS37B subunit of ESCRT-I) | 2.07 | 1.46 | 1.43 | inactive
LOC440601 (retired record) | -1.14 | -1.32 | -1.43 | inactive
DNM1L (dynamin 1L) | 0.383 | 1.64 | 0.358 | inactive
EDC4 (enhancer of mRNA decapping 4) | 1.63 | 1.57 | 2.95 | inactive
RPL31P23 (ribosomal protein L31 pseudogene 23) | -1.73 | -2.16 | -2.19 | active
XIRP2 (xin actin binding repeat containing 2) | -0.731 | -1.04 | -0.0202 | inactive
FCER1A (Fc epsilon receptor Ia) | -1.48 | -1.28 | -1.21 | inactive
CLTCL1 (clathrin heavy chain like 1) | 0.0568 | -0.561 | -0.362 | inactive
MIER3 (MIER family member 3) | -0.56 | -0.152 | 0.216 | inactive
AICDA (activation induced cytidine deaminase) | 1.21 | 1.37 | 1.51 | inactive
TMEM230 (transmembrane protein 230) | -0.101 | -0.165 | 0.611 | inactive
COL26A1 (collagen type XXVI alpha 1 chain) | 3.15 | 3.31 | 4.16 | active
GNLY (granulysin) | 0.0174 | -0.16 | -0.526 | inactive
LINC01483 (long independently transcribed non-coding RNA 1483) | 0.337 | 0.207 | 0.502 | inactive
LINC00880 (long independently transcribed non-coding RNA 880) | 1.6 | 1.22 | 1.44 | inactive
LINC00939 (long independently transcribed non-coding RNA 939) | -0.49 | -0.772 | -0.994 | inactive
LOC388300 (retired record) | -1 | -0.751 | -0.448 | inactive
PDZD9 (PDZ domain containing 9) | -0.363 | -0.481 | -0.312 | inactive
OXT (oxytocin/neurophysin I prepropeptide) | 0.181 | -0.287 | 0.26 | inactive
UCN (urocortin) | 0.246 | -0.433 | -0.517 | inactive
RIC3 (RIC3 acetylcholine receptor chaperone) | -0.515 | -1.02 | -0.406 | inactive
MYL2 (myosin light chain 2) | 0.72 | 1.05 | -0.0171 | inactive
FBLL1 (fibrillarin like rRNA 2'-O-methyltransferase 1) | -1.73 | -1.88 | -1.89 | inactive
LOC400943 (retired record) | 1.85 | 1.67 | 1.67 | inactive
SHQ1 (SHQ1, H/ACA ribonucleoprotein assembly factor) | -0.501 | 0.614 | -0.697 | inactive
NDUFAF8 (NADH:ubiquinone oxidoreductase complex assembly factor 8) | 1.24 | 0.891 | 1.23 | inactive
TP53TG5 (TP53 target 5) | 0.551 | 0.854 | -0.685 | inactive
SKINT1L (Skint1 like (pseudogene)) | 0.267 | -0.0229 | 0.00194 | inactive
CPS1 (carbamoyl-phosphate synthase 1) | 0.668 | 0.486 | 0.579 | inactive
GPR75 (G protein-coupled receptor 75) | -1.34 | -0.926 | -0.508 | inactive
SCNM1 (sodium channel modifier 1) | -0.621 | -0.797 | -0.484 | inactive
NFYB (nuclear transcription factor Y subunit beta) | 0.396 | -0.0314 | 0.373 | inactive
LOC339793 (retired record) | -2.13 | -2.19 | -2.16 | active
TXNDC5 (thioredoxin domain containing 5) | -0.253 | -0.321 | -0.732 | inactive
DOK1 (docking protein 1) | 1.54 | 0.363 | 1.17 | inactive
PAEP (progestagen associated endometrial protein) | -1.62 | -1.41 | -1.63 | inactive
CRISP2 (cysteine rich secretory protein 2) | 0.582 | 0.678 | 0.0978 | inactive
FLT1 (fms related receptor tyrosine kinase 1) | -0.331 | -0.344 | -0.0699 | inactive
TNNI3 (troponin I3, cardiac type) | -0.845 | -2.14 | -0.256 | inactive
TARDBPP2 (TARDBP pseudogene 2) | -0.312 | -0.703 | -0.257 | inactive
RIN2 (Ras and Rab interactor 2) | -0.547 | 1.31 | 1.34 | inactive
COL5A1 (collagen type V alpha 1 chain) | -0.116 | 0.917 | 1.73 | inactive
E2F1 (E2F transcription factor 1) | 1.43 | 1.79 | 1.54 | inactive
IL34 (interleukin 34) | -0.988 | -1.2 | -0.788 | inactive
ADIPOR1 (adiponectin receptor 1) | -0.705 | -0.689 | -0.876 | inactive

Targets above whose target name starts with L or l:
target gene | robust z-score, replicate 1 | robust z-score, replicate 2 | robust z-score, replicate 3 | outcome
LOC442385 (retired record) | -0.341 | -0.796 | -0.797 | inactive
LAMP1 (lysosome associated membrane protein 1) | -0.0146 | 0.0306 | -0.3 | inactive
LOC440466 (retired record) | -0.502 | -0.335 | -0.732 | inactive
LOC441243 (retired record) | 1.67 | 0.329 | 0.589 | inactive
LOC402367 (retired record) | -0.928 | 0.0744 | -0.526 | inactive
LOC440601 (retired record) | -1.14 | -1.32 | -1.43 | inactive
LINC01483 (long independently transcribed non-coding RNA 1483) | 0.337 | 0.207 | 0.502 | inactive
LINC00880 (long independently transcribed non-coding RNA 880) | 1.6 | 1.22 | 1.44 | inactive
LINC00939 (long independently transcribed non-coding RNA 939) | -0.49 | -0.772 | -0.994 | inactive
LOC388300 (retired record) | -1 | -0.751 | -0.448 | inactive
LOC400943 (retired record) | 1.85 | 1.67 | 1.67 | inactive
LOC339793 (retired record) | -2.13 | -2.19 | -2.16 | active
